Reference: US9254274B2, “Method of treating Tourette'S disorder with GABA-aminotransferase inactivators” (CATALYST PHARMACEUTICAL PARTNERS, priority 2012, dated 2016)

Tested on: GABAA receptor
Assay: [^3H]muscimol competition binding, rat brain synaptic membranes
Conditions: 1 mM cold GABA
Procedure: GABAA and GABAB binding assays were performed using rat brain synaptic membranes of cortex and the central hemispheres from adult male Sprague-Dawley rats with tissue preparation as earlier described (Ransom, R. W.; Stec, N. L. Cooperative modulation of [^3H]MK-801 binding to the N-methyl-D-aspartate receptor-ion channel complex by L-glutamate, glycine, and polyamines. J. Neurochem. 1988, 51, 830-836). On the day of the assay, the membrane preparation was quickly thawed, suspended in 40 volumes of ice-cold 50 mM Tris-HCl buffer (pH 7.4) using an UltraTurrax homogenizer and centrifuged at 48,000 g for 10 min at 4° C. This washing step was repeated four times. The final pellet was resuspended in incubation buffer and the binding assay carried out as detailed below.
Rat brain synaptic membranes (100 μg protein/aliquot) prepared above in Tris-HCl buffer (50 mM, pH 7.4) were incubated with [^3H]muscimol (5 nM) and 100 μM of compound 2 at 0° C. for 60 min in a total volume of 250 μl.

SMILES: NCCCC(=O)O [GABA, gamma aminobutyric acid]
- inhibition of radioligand binding at GABAA receptors: inhibited radioligand binding as expected
